In PMC10163288:
The list shows a part of the results.

B1: il10ra_site1_sap_19_mot_8756ee2cf497b5429c717dfc0c0bcfd6_0001_000000186_0001_1_13_H_._HHH_b1_06619_af2_0001_0000800038_0000001_0_0001 (protein)
chain: SSSSTEERRELYRLSREAAELASDGNEEEAREVLEEVIELARELGNWAVLMNAEFLLKIHSSSSS
B2: il10ra_site1_sap_25_mot_HHH_b2_05540_000000178_0001_1_18_H_._ems_p1-15H-GBL-16H-GABBL-16H_0381_0001_0001_0001_0001_0000500025_0000002_0_0001 (protein)
chain: SSSSSDMEELYRRIAELLRRLREVSPEEREELLREAKELAEELNNEYLKRAIEHMARAVNSSSSS
B3: il10ra_site1_normal_mot_HHH_b2_08186_000000021_0001_43_56_H_._HHH_b2_05014_af2_0002_0000100001_0000002_0 (protein)
chain: SSSSDEEELRELIEEAEELLERGNPEEALEVVLRALQLAFELSNAETLQRIWELLKRIATSSSSS
B4: il10ra_site1_normal_mot_HHH_b1_00682_000000211_0001_1_20_H_._HHH_b2_08013_af2_0001_0000100007_0000001_0 (protein)
chain: SSSSDEAYRVAREAVERASELLERGNPEEAEELLEEAIRIVEELGNEAAVFSLRHLLRVVRSSSS
B5: il10ra_site1_normal_mot_HHH_b1_06789_af2_000000041_0001_1_20_H_._HHH_b1_07672_0001_0000200009_0000002_0 (protein)
chain: SSSSSNTRWLARQAFRALKRAIELGDEERIEHVAEILENLAEFANDPYARELVEEARELLSSSSS
B6: il10ra_site1_normal_mot_HHH_b1_08508_000000230_0001_42_56_H_._HHH_b2_01495_0002_0000100004_0000001_0 (protein)
chain: SSSSTEEIREAYRLSREAAEALTEGDPEEARELLEEAEELLREAGNLVVLHNVEYLLRVLDSSSS
B7: il10ra_site1_normal_mot_HHH_b1_02062_000000185_0001_1_20_H_._HHH_b1_07293_0001_0000100005_0000001_0 (protein)
chain: SSSSSEELRRAYELSRRIAELDSEGDEEEAKKLLEELQELAEELNNFVLKANIKLLEQQLSSSSS
B8: il10ra_site1_normal_mot_HHH_b1_01880_000000285_0001_23_39_H_._HHH_b2_02582_0001_0000400020_0000001_0_af2pred_0001 (protein)
chain: SSSSSSDEFEELLEEAKRLAEELGDEEIKIAIRVAERLYKLKGDPKIKWALEALLENLSSSSSSS
B9: il10ra_site1_normal_mot_HHH_b1_00456_000000263_0001_1_17_H_._HHH_b2_07290_0001_0000400032_0000001_0_af2pred_0001 (protein)
chain: SSSSSSDEEEVEELLEEAKRIEDPEERAEVLDEAYLVALEHNNPELEELVREVAKELRSSSSSSS
B10: il10ra_site1_sap_14_mot_HHH_b1_05357_000000034_0001_23_39_H_._HHH_b2_06277_0001_0000100001_0000001_0_0001 (protein)
chain: PVNEVIQRLVRLAFREGDPELLRALWKLVKRYAEGDPEAEELLEEVAELLKKDEEEAKRLLKELG
B11: il10ra_site1_sap_27_mot_0eddeacbb14b769e73e254714f31e2f9_0001_af2_000000203_0001_37_51_H_._HHH_b1_05307_af2_0001_0000800012_0000001_0_0001_af2pred_0001 (protein)
chain: SSSSSSEEVEERIKELLEQIEEAKNAHERFELAQEVLELAIEANDPELQRRVAEALAEIFSSSSS
B12: il10ra_site1_sap_23_mot_3af0db62db2b275566dae2e03bf881fa_0001_000000003_0001_37_50_H_._HHH_b1_03614_af2_0001_0000100001_0000001_0_0001 (protein)
chain: SSSSDEEEREEAEELLEQAKRIEDPEERLQVLARAAALATRANDHELLEEIQRLMVEALHSSSSS
B13: il10ra_site1_sap_18_mot_HHH_b2_00277_af2_000000172_0001_1_17_H_._HHH_b2_02521_0001_0003200045_0000002_0_0001_af2pred_0001 (protein)
chain: SSSSSEEEERLRLALRFAKRLLEDGDPEAAEFLVRAAIELARDLGDEETVQEAEELLEEINSSSS
B14: il10ra_site1_normal_mot_HHH_b2_03220_af2_000000223_0001_23_40_H_._HHH_b2_06947_0001_0000100002_0000002_0 (protein)
chain: SSSSDENEEVWELIREALELLANGNPEEAKEVLEEAERLAEEANNFAARFAIRLLLREIDSSSSS
B15: il10ra_site1_normal_mot_HHH_b2_00277_af2_000000172_0001_1_17_H_._HHH_b2_06089_0001_0000100010_0000001_0_af2pred_0001 (protein)
chain: SSSSDEEVRREVREILEEAKHIEDKEKLTYLLLRAFALASQAGDEELLREVKEVAQKLAESSSSS
B16: il10ra_site1_sap_26_mot_HHH_b2_06602_000000226_0001_1_16_H_._HHH_b1_07649_af2_0001_0000100001_0000002_0_0001 (protein)
chain: SSSSDVEEEVKELLKEAEELREEGDPEEAAKVLQEAVHLAYQAQDPELLHLVWEVVKRLGTSSSS
B17: il10ra_site1_sap_11_mot_HHH_b1_00103_000000293_0001_1_15_H_._HHH_b2_04504_0001_0000400018_0000001_1_0001 (protein)
chain: SSSSSDEEEEEFKELRREAEEAKNADERYEVIKRLIEIASELNDEELERLVHEIIHRLLRSSSSS
B18: il10ra_site1_normal_mot_HHH_b2_00475_000000107_0001_44_57_H_._HHH_b1_07089_af2_0001_0000300033_0000001_0_af2pred_0001 (protein)
chain: SSSSDDEKVVRLLFEALELIAQGNLEEAEELLKEAEKIARENNDEELERKVEQALKLVRNESSSS
B19: il10ra_site1_sap_18_mot_1cde5897893f3d1588f92be3b001cdf2_0001_af2_000000130_0001_54_65_H_._HHH_b1_03640_af2_0001_0001000026_0000001_0_0001 (protein)
chain: SSSSSSVEEIKKLIEEIKELVEEGNEEEAKELTEQAKEIAEELGDQLAARTVEYFLRLQISSSSS
B20: il10ra_site1_sap_18_mot_HHH_b1_06816_000000239_0001_1_19_H_._HHH_b1_04212_0001_0000100009_0000001_0_0001_af2pred_0001 (protein)
chain: SSSSSDEDRQRLLKLLLRAKRLGVEEAREVVHKALLLLSEGRLSPEELEKLEEEAERLLGSSSSS
B21: il10ra_site1_sap_18_mot_HHH_b2_00479_000000091_0001_1_12_H_._HHH_b2_06355_0001_0000300025_0000001_0_0001 (protein)
chain: TELMTRILKKILERDPELAKRAVEQQLRLQGVPPEEIEELQEQLEELAKEDPEEAARFVAEVIIR
B22: il10ra_site1_sap_17_mot_HHH_b2_05972_af2_000000208_0001_1_16_H_._HHH_b1_01803_0001_0000500042_0000001_0_0001 (protein)
chain: SSSSDRRREVYELLRRAVELDHEGDKEEAEEVLREAEELAREANDPLFLRQVEFLKRILEGSSSS
B23: il10ra_site1_normal_mot_HHH_b1_05056_000000217_0001_1_20_H_._HHH_b1_04083_0001_0000400040_0000002_0 (protein)
chain: SSSSDEEEYRREVEELLEEAEHIPDLREATRLLQEAVRLAYELQDPELLQLIWEVVKRVASSSSS
B24: il10ra_site1_sap_25_mot_39ab2cb694c8b9c1dc7e65c0d672c93e_0001_000000036_0001_53_65_H_._HHH_b1_05662_af2_0001_0000300011_0000002_0_0001_af2pred_0001 (protein)
chain: SSSSSEEFEELERRIRELLEEGDLHEAAALVVRLYAVANKLGDPELEEIVKELARIIAELLSSSS

Biological target: il10ra, Q13651
Experiment: yeast display titration

Apparent Kd, inactive:
B1 no binding seen
B2 no binding seen
B3 no binding seen
B4 no binding seen
B5 no binding seen
B6 no binding seen
B7 no binding seen
B8 no binding seen
B9 no binding seen
B10 no binding seen
B11 no binding seen
B12 no binding seen
B13 no binding seen
B14 no binding seen
B15 no binding seen
B16 no binding seen
B17 no binding seen
B18 no binding seen
B19 no binding seen
B20 no binding seen
B21 no binding seen
B22 no binding seen
B23 no binding seen
B24 no binding seen

2 records picked at random from those above:
Apparent Kd, inactive:
B7 no binding seen
B9 no binding seen
